{"source": "patent US9365577B2", "about": "“Pyrimidinone compounds as human neutrophil elastase inhibitors” (CHIESI FARMACEUTICI S.p.A., priority 2012, dated 2016)", "note": "Counter-ions that a name gives are not always drawn. Some of these results come from one statement about several compounds together.", "data": [{"target": "T1, human neutrophil elastase (HNE) (Homo sapiens, UniProt P08246)", "T1 construct": "purchased Sigma E8140", "T1 sequence (P08246 30-267)": "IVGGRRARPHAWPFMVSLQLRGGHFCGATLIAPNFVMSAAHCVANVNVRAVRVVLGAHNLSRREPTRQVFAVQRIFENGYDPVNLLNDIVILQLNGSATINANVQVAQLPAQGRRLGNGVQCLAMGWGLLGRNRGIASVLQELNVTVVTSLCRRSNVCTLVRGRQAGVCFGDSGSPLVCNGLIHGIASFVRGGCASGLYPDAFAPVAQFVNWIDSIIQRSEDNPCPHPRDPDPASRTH", "assay": "HNE enzyme assay", "type": "biochemical", "settings": "human leukocyte elastase, substrate MeOSuc-Ala-Ala-Pro-Val-AMC, 25° C. for 30 minutes, fluorescence; at least two separate experiments; read-out: HNE inhibition", "units": {"IC50": "nM"}, "values": [{"smiles": "CC[N+]1(Cc2cc(C#N)ccc2[C@@H]2C(C(=O)OC)=C(C)N(c3cccc(C(F)(F)F)c3)c3n[nH]c(=O)n32)CCOCC1", "note": "[Example 99, 4-{5-Cyano-2-[(R)-6-methoxycarbonyl-7-methyl-3-oxo-8-(3-trifluoromethyl-phenyl)-2,3,5,8-tetrahydro-[1,2,4]triazolo[4,3-a]pyrimidin-5-yl]-benzyl}-4-ethyl-morpholin-4-ium formate]", "IC50": "< 20"}, {"smiles": "COC(=O)C1=C(C)N(c2cccc(C(F)(F)F)c2)c2n[nH]c(=O)n2[C@@H]1c1ccc(C#N)cc1C[N+]1(C)CCN(C(=O)N(C)C)CC1", "note": "[Example 100, 1-{5-Cyano-2-[(R)-6-methoxycarbonyl-7-methyl-3-oxo-8-(3-trifluoromethyl-phenyl)-2,3,5,8-tetrahydro-[1,2,4]triazolo[4,3-a]pyrimidin-5-yl]-benzyl}-4-dimethyl-carbamoyl-1-methyl-piperazin-1-ium formate]", "IC50": "< 20"}, {"smiles": "COC(=O)C1=C(C)N(c2cccc(C(F)(F)F)c2)c2n[nH]c(=O)n2[C@@H]1c1ccc(C#N)cc1C[N+](C)(C)CC(=O)N(C)C", "note": "[Example 101, {5-Cyano-2-[(R)-6-methoxycarbonyl-7-methyl-3-oxo-8-(3-trifluoromethyl-phenyl)-2,3,5,8-tetrahydro-[1,2,4]triazolo[4,3-a]pyrimidin-5-yl]-benzyl}-dimethyl-carbamoyl-methyl-dimethyl-ammonium formate]", "IC50": "< 20"}, {"smiles": "COC(=O)C1=C(C)N(c2cccc(C(F)(F)F)c2)c2n[nH]c(=O)n2[C@@H]1c1ccc(C#N)cc1C[N+](C)(C)C1CCN(S(C)(=O)=O)CC1", "note": "[Example 102, {5-Cyano-2-[(R)-6-methoxycarbonyl-7-methyl-3-oxo-8-(3-trifluoromethyl-phenyl)-2,3,5,8-tetrahydro-[1,2,4]triazolo[4,3-a]pyrimidin-5-yl]-benzyl}-(1-methanesulfonyl-piperidin-4-yl)-dimethyl-ammonium formate]", "IC50": "< 20"}, {"smiles": "COC(=O)C1=C(C)N(c2cccc(C(F)(F)F)c2)c2n[nH]c(=O)n2[C@@H]1c1ccc(C#N)cc1C[N+](C)(C)CC1COC1", "note": "[Example 103, {5-Cyano-2-[(R)-6-methoxycarbonyl-7-methyl-3-oxo-8-(3-trifluoromethyl-phenyl)-2,3,5,8-tetrahydro-[1,2,4]triazolo[4,3-a]pyrimidin-5-yl]-benzyl}-dimethyl-oxetan-3-ylmethyl-ammonium formate]", "IC50": "< 20"}, {"smiles": "CNC(=O)CCC[N+](C)(C)Cc1cc(C#N)ccc1[C@@H]1C(C(=O)OC)=C(C)N(c2cccc(C(F)(F)F)c2)c2n[nH]c(=O)n21", "note": "[Example 104, (5-Cyano-2-[(R)-6-methoxycarbonyl-7-methyl-3-oxo-8-(3-trifluoromethyl-phenyl)-2,3,5,8-tetrahydro-[1,2,4]triazolo[4,3-a]pyrimidin-5-yl]-benzyl}-dimethyl-(3-methylcarbamoyl-propyl)-ammonium formate]", "IC50": "< 20"}, {"smiles": "COC(=O)C1=C(C)N(c2cccc(C(F)(F)F)c2)c2n[nH]c(=O)n2[C@@H]1c1ccc(C#N)cc1C[N+](C)(C)CCCS(=O)(=O)N(C)C", "note": "[Example 105, {5-Cyano-2-[(R)-6-methoxycarbonyl-7-methyl-3-oxo-8-(3-trifluoromethyl-phenyl)-2,3,5,8-tetrahydro-[1,2,4]triazolo[4,3-a]pyrimidin-5-yl]-benzyl}-(3-dimethyl-sulfamoyl-propyl)-dimethyl-ammonium formate]", "IC50": "< 20"}, {"smiles": "COC(=O)C1=C(C)N(c2cccc(C(F)(F)F)c2)c2n[nH]c(=O)n2[C@@H]1c1ccc(C#N)cc1C[N+]1(C)CCN(S(C)(=O)=O)CC1", "note": "[Example 106, 1-{5-Cyano-2-[(R)-6-methoxycarbonyl-7-methyl-3-oxo-8-(3-trifluoromethyl-phenyl)-2,3,5,8-tetrahydro-[1,2,4]triazolo[4,3-a]pyrimidin-5-yl]-benzyl}-4-methanesulfonyl-1-methyl-piperazin-1-ium formate]", "IC50": "< 20"}, {"smiles": "COC(=O)C1=C(C)N(c2cccc(C(F)(F)F)c2)c2n[nH]c(=O)n2[C@@H]1c1ccc(C#N)cc1C[N+](C)(CCO)CCO", "note": "[Example 107, (5-Cyano-2-[(R)-6-methoxycarbonyl-7-methyl-3-oxo-8-(3-trifluoromethyl-phenyl)-2,3,5,8-tetrahydro-[1,2,4]triazolo[4,3-a]pyrimidin-5-yl]-benzyl}-bis-(2-hydroxy-ethyl)-methyl-ammonium formate]", "IC50": "< 20"}, {"smiles": "COC(=O)C1=C(C)N(c2cccc(C(F)(F)F)c2)c2n[nH]c(=O)n2[C@@H]1c1ccc(C#N)cc1C[N+]1(C)CCC(F)(F)CC1", "note": "[Example 108, 1-{5-Cyano-2-[(R)-6-methoxycarbonyl-7-methyl-3-oxo-8-(3-trifluoromethyl-phenyl)-2,3,5,8-tetrahydro-[1,2,4]triazolo[4,3-a]pyrimidin-5-yl]-benzyl}-4,4-difluoro-1-methyl-piperidinium formate]", "IC50": "< 20"}, {"smiles": "COC(=O)C1=C(C)N(c2cccc(C(F)(F)F)c2)c2n[nH]c(=O)n2[C@@H]1c1ccc(C#N)cc1C[N+]1(C)CCCOCC1", "note": "(stereo partly drawn) [Example 109, 4-{5-Cyano-2-[(R)-6-methoxycarbonyl-7-methyl-3-oxo-8-(3-trifluoromethyl-phenyl)-2,3,5,8-tetrahydro-[1,2,4]triazolo[4,3-a]pyrimidin-5-yl]-benzyl}-4-methyl-[1,4]oxazepan-4-ium formate]", "IC50": "< 20"}, {"smiles": "COCCC[N+](C)(C)Cc1cc(C#N)ccc1[C@@H]1C(C(=O)OC)=C(C)N(c2cccc(C(F)(F)F)c2)c2n[nH]c(=O)n21", "note": "[Example 110, {5-Cyano-2-[(R)-6-methoxycarbonyl-7-methyl-3-oxo-8-(3-trifluoromethyl-phenyl)-2,3,5,8-tetrahydro-[1,2,4]triazolo[4,3-a]pyrimidin-5-yl]-benzyl}-(3-methoxy-propyl)-dimethyl-ammonium formate]", "IC50": "< 20"}, {"smiles": "COC(=O)C1=C(C)N(c2cccc(C(F)(F)F)c2)c2n[nH]c(=O)n2[C@@H]1c1ccc(C#N)cc1C[N+](C)(C)CCCS(C)(=O)=O", "note": "[Example 111, {5-Cyano-2-[(R)-6-methoxycarbonyl-7-methyl-3-oxo-8-(3-trifluoromethyl-phenyl)-2,3,5,8-tetrahydro-[1,2,4]triazolo[4,3-a]pyrimidin-5-yl]-benzyl}-(3-methanesulfonyl-propyl)-dimethyl-ammonium formate]", "IC50": "< 20"}, {"smiles": "COC(=O)C1=C(C)N(c2cccc(C(F)(F)F)c2)c2n[nH]c(=O)n2[C@@H]1c1ccc(C#N)cc1C[N+](C)(C)C1CCN(C)CC1", "note": "[Example 112, {5-Cyano-2-[(R)-6-methoxycarbonyl-7-methyl-3-oxo-8-(3-trifluoromethyl-phenyl)-2,3,5,8-tetrahydro-[1,2,4]triazolo[4,3-a]pyrimidin-5-yl]-benzyl}-dimethyl-(1-methyl-piperidin-4-yl)-ammonium formate]", "IC50": "< 20"}, {"smiles": "COC(=O)C1=C(C)N(c2cccc(C(F)(F)F)c2)c2n[nH]c(=O)n2[C@@H]1c1ccc(C#N)cc1C[N+](C)(C)C1CCNCC1", "note": "[Example 113, {5-Cyano-2-[(R)-6-methoxycarbonyl-7-methyl-3-oxo-8-(3-trifluoromethyl-phenyl)-2,3,5,8-tetrahydro-[1,2,4]triazolo[4,3-a]pyrimidin-5-yl]-benzyl}-dimethyl-piperidin-4-yl-ammonium formate]", "IC50": "< 20"}, {"smiles": "COC(=O)C1=C(C)N(c2cccc(C(F)(F)F)c2)c2n[nH]c(=O)n2[C@@H]1c1ccc(C#N)cc1C[N+](C)(C)C1CCOCC1", "note": "[Example 114, {5-Cyano-2-[(R)-6-methoxycarbonyl-7-methyl-3-oxo-8-(3-trifluoromethyl-phenyl)-2,3,5,8-tetrahydro-[1,2,4]triazolo[4,3-a]pyrimidin-5-yl]-benzyl}-dimethyl-(tetrahydro-pyran-4-yl)-ammonium formate]", "IC50": "< 20"}, {"smiles": "COC(=O)C1=C(C)N(c2cccc(C(F)(F)F)c2)c2n[nH]c(=O)n2[C@@H]1c1ccc(C#N)cc1C[N+]1(CCCC#N)CCCC1", "note": "[Example 115, 1-{5-Cyano-2-[(R)-6-methoxycarbonyl-7-methyl-3-oxo-8-(3-trifluoromethyl-phenyl)-2,3,5,8-tetrahydro-[1,2,4]triazolo[4,3-a]pyrimidin-5-yl]-benzyl}-1-(3-cyano-propyl)-pyrrolidinium formate]", "IC50": "< 20"}, {"smiles": "COC(=O)C1=C(C)N(c2cccc(C(F)(F)F)c2)c2n[nH]c(=O)n2[C@@H]1c1ccc(C#N)cc1C[n+]1ccccc1", "note": "[Example 116, 1-{5-Cyano-2-[(R)-6-methoxycarbonyl-7-methyl-3-oxo-8-(3-trifluoromethyl-phenyl)-2,3,5,8-tetrahydro-[1,2,4]triazolo[4,3-a]pyrimidin-5-yl]-benzyl}-pyridinium bromide]", "IC50": "< 20"}, {"smiles": "COC(=O)C1=C(C)N(c2cccc(C(F)(F)F)c2)c2n[nH]c(=O)n2[C@@H]1c1ccc(C#N)cc1C[N+](C)(C)Cc1ccccc1", "note": "[Example 120, Benzyl-{5-cyano-2-[(R)-6-methoxycarbonyl-7-methyl-3-oxo-8-(3-trifluoromethyl-phenyl)-2,3,5,8-tetrahydro-[1,2,4]triazolo[4,3-a]pyrimidin-5-yl]-benzyl}-dimethyl-ammonium bromide]", "IC50": "< 20"}, {"smiles": "COC(=O)C1=C(C)N(c2cccc(C(F)(F)F)c2)c2n[nH]c(=O)n2[C@@H]1c1ccc(C#N)cc1C[N+]1(C)CCOCC1", "note": "[Example 122, 4-{5-Cyano-2-[(R)-6-methoxycarbonyl-7-methyl-3-oxo-8-(3-trifluoromethyl-phenyl)-2,3,5,8-tetrahydro-[1,2,4]triazolo[4,3-a]pyrimidin-5-yl]-benzyl}-4-methyl-morpholin-4-ium bromide]", "IC50": "< 20"}, {"smiles": "COC(=O)C1=C(C)N(c2cccc(C(F)(F)F)c2)c2n[nH]c(=O)n2[C@@H]1c1ccc(C#N)cc1C[N+](C)(C)CCCO", "note": "[Example 124, 4-{5-Cyano-2-[(R)-6-methoxycarbonyl-7-methyl-3-oxo-8-(3-trifluoromethyl-phenyl)-2,3,5,8-tetrahydro-[1,2,4]triazolo[4,3-a]pyrimidin-5-yl]-benzyl}-4-methyl-morpholin-4-ium bromide]", "IC50": "< 20"}]}]}
